From article PMC5148605, “Prefabrication of a ribosomal protein subcomplex essential for eukaryotic ribosome formation” (eLife, 2016)

The chains behind the UniProt entries cited, without tags or fusion partners. Where a name states a change or a piece, a line headed by the entry shows the natural chain unless it says otherwise.
UniProt P39938: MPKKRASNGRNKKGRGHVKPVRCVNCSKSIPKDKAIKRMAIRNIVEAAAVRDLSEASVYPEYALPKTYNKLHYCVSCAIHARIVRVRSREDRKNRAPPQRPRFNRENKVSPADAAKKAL

Tests used:
[1] = biological target: T1, GST-Fap7 (S. cerevisiae) (UniProt Q12055); test: pull-down; GST-tagged Fap7 and uS11 baits immobilised on Glutathione Sepharose in binding buffer (20 mM Hepes pH 7.5, 250 mM NaCl, 5 mM MgCl2, 0.2% Tween-20), incubated with E. coli lysate containing recombinant eS26FLAG or Tsr2:eS26; washed thrice; SDS-PAGE, Coomassie and Western; only the target purified
T1 sequence: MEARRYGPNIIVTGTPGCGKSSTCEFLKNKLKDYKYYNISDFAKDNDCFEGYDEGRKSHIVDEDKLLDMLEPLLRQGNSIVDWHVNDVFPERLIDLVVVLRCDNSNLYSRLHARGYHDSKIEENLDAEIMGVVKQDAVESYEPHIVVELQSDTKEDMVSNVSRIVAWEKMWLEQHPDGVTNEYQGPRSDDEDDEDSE

[2] = biological target: T2, Enp1-TAP (S. cerevisiae) (UniProt P38333); test: tandem affinity purification (TAP) with Western analysis; Enp1-TAP isolated from Fap7-depleted cells; calmodulin eluates
T2 sequence: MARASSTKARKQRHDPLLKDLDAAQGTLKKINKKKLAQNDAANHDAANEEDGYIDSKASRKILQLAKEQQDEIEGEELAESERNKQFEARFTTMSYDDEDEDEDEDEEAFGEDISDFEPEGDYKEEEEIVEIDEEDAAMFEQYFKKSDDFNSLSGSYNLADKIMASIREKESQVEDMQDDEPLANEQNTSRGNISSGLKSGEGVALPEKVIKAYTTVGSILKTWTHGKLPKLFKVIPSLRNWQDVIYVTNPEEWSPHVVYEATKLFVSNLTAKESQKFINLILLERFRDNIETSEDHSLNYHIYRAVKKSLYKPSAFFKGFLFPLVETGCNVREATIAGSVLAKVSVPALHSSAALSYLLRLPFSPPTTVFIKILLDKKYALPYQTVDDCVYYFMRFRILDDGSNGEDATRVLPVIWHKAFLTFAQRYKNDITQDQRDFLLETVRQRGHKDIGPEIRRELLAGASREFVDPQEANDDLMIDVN

[3] = biological target: T2, Enp1-TAP (S. cerevisiae); test: tandem affinity purification (TAP) with Western analysis; Enp1-TAP isolated from Tsr2-depleted cells; calmodulin eluates
[4] = biological target: T2, Enp1-TAP (S. cerevisiae); test: tandem affinity purification (TAP) with Western analysis; TAP-tagged baits isolated from yeast cells (wild type; also Fap7- or Tsr2-depleted cells and Tsr2-depleted cells co-overexpressing FAP7 and uS11); calmodulin eluates; pre-ribosomal particles
[5] = biological target: T3, GST-Pse1 (S. cerevisiae) (UniProt P32337); test: pull-down; GST-Pse1 immobilised on Glutathione Sepharose, incubated with buffer or eS26 alone; washed; Coomassie and Western
T3 sequence: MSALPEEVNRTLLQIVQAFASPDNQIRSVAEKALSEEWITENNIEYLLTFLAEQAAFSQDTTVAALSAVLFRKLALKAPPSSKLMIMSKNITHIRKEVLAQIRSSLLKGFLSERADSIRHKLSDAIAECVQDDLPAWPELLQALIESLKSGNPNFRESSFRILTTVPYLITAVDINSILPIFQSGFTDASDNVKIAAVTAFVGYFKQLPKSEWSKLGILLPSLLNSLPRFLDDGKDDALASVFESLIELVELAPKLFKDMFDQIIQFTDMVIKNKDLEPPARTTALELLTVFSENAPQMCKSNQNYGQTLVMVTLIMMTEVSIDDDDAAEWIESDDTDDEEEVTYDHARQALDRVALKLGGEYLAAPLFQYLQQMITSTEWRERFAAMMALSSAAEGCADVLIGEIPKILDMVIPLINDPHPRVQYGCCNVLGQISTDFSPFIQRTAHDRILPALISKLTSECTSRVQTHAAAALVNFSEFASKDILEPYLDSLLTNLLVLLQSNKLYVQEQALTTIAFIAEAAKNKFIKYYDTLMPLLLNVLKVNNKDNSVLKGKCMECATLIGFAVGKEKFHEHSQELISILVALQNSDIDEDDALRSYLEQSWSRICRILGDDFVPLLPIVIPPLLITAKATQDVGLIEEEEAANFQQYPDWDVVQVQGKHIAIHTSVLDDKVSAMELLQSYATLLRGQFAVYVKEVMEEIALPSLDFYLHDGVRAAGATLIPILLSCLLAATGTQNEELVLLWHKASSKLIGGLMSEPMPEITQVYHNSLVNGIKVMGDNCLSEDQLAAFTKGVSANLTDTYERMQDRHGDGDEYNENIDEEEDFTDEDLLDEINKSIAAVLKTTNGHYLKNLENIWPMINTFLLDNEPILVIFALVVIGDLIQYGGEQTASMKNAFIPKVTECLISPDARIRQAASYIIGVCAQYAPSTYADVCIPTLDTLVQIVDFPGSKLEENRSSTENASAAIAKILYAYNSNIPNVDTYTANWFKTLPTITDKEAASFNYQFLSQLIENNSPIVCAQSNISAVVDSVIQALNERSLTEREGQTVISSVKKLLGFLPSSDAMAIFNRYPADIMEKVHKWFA

[6] = biological target: T3, GST-Pse1 (S. cerevisiae); test: pull-down; pre-immobilised GST-Pse1:eS26FLAG complexes incubated with buffer alone or 1.5 µM His6-Fap7:uS11 and/or 1.5 µM RanGTP at 4°C; samples at 0 and 10 min (Fap7:uS11 for 1 hr in Figure 7A); Coomassie and Western; both purified

binding [1] | binding [2] | binding [3] | binding [4] | binding [5] | binding [6] | Substance
no binding | – | – | – | – | – | Tsr2:eS26 complex (S. cerevisiae)
– | binds weakly | binds weakly | binds | – | – | eS26 (endogenous) (from UniProt P39938)
no binding | – | – | – | binds | binds | eS26FLAG (from UniProt P39938)

No constants are given. Whether binding was seen depends on the method and setting. For some of these results: Binding calls can cover weak binding; strength is not graded here. For some of these results: Tags and fused reporters may be left off the sequences shown. For some of these results: In cells and extracts the contact can be indirect.
